Measured values taken from the supplement of paper PMC10735217.
Counter-ions that a name gives are not always drawn. Some of the results follow. Single values are uncertain here, since repeats match poorly.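 In a drug-repurposing library screen, luminescence reads luciferase driven by eight TEAD-binding elements, stably integrated into human kidney-derived cells. Compounds scoring over five robust Z scores above the plate mean are called hits.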

Tested on: HEK293A TEAD-LUC reporter
Test: TEAD-luciferase reporter activity (YAP activation), robust Z score vs plate; higher = stronger YAP/TEAD activation
Details: 24 h

| Structure (SMILES) | TEAD-luciferase reporter activity (compound concentration: 2 uM) | TEAD-luciferase reporter activity (compound concentration: 200 nM) | TEAD-luciferase reporter activity (compound concentration: 10 uM) |
| --- | --- | --- | --- |
| c1ccc2c(c1)CCCC2C1=NCCN1 (configuration not stated) [Tetrahydrozoline hydrochloride] | inactive: -0.877 | – | – |
| c1ccc2c(c1)CCCC2C1=NCCN1 (configuration not stated) [Tyzine] | – | inactive: -0.54 | inactive: 1.69 |
| CC1/C=C/C=C/C=C/C=C/C=C/C=C/C=C/C(OC2OC(C)C(O)C(N)C2O)CC(O)C(C(=O)O)C(O)CC(=O)CC(O)CC(O)CC(O)CC(=O)CCCC(=O)CC(=O)OC1C(C)CC(C)C(O)CC(=O)c1ccc(N)cc1 (configuration not stated) | inactive: -0.98 | inactive: -0.926 | inactive: -0.713 |
| CC1=C(C(=O)O)N2C(=O)[C@@H](NC(=O)[C@H](N)C3=CCC=CC3)[C@H]2SC1 [Cefradine] | inactive: -1.66 | – | – |
| CC1=C(C(=O)O)N2C(=O)[C@@H](NC(=O)[C@H](N)C3=CCC=CC3)[C@H]2SC1 [Cephradine] | – | inactive: -0.961 | inactive: 3.44 |
| CCOP(=O)(OCC)C1(P(=O)(OCC)OCC)CC(C(=O)c2ccccc2)=NN1 | inactive: -0.644 | inactive: -0.773 | inactive: 2.11 |
| CS(=O)(=O)Nc1cc2c(cc1Sc1ccc(F)cc1F)C(=O)CC2 | inactive: 0.00553 | inactive: -1.24 | inactive: -0.663 |
| O=C(O)CCCN1CCC(O[C@@H](c2ccc(Cl)cc2)c2ccccn2)CC1 [bepotastine besilate] | inactive: -0.471 | inactive: 0.0578 | active: 5.14 |
| CC(C)c1cc2ccccn2c1C(=O)c1ccc(OCCCNC(C)(C)C)cc1 [brinazarone] | inactive: 0.219 | inactive: 0.0608 | inactive: 0.508 |
| CCOC(=O)C1=C(C)NC(CN(C)C)=C(C(=O)OCC)C1c1ccccc1/C=C/C(=O)OC(C)(C)C (configuration not stated) | inactive: -0.943 | inactive: -0.907 | inactive: -2.25 |
| O=c1oc2ccccc2cc1Oc1ccc(Cl)cc1Cl | inactive: 0.743 | inactive: -1.47 | inactive: 2.29 |
| CNC(=O)[C@@H](c1ccccc1)N1CCc2cc(OC)c(OC)cc2[C@@H]1CCc1ccc(C(F)(F)F)cc1 [Almorexant] | inactive: -1.77 | inactive: 0.246 | inactive: -0.435 |
| O=C(O)c1ccc2nc(-c3cc(Cl)cc(Cl)c3)oc2c1 | inactive: 0.323 | inactive: 0.897 | active: 6.34 |
| COc1ccc(/C=C2\C(=O)OC[C@@H]2Cc2ccc3c(c2)OCO3)cc1OC [Kaerophyllin] | inactive: -1.13 | inactive: -0.366 | inactive: -0.937 |
| O=c1c2c(Cc3ccccc3)n[nH]c2c2cccnc2n1-c1ccccc1 | inactive: 1.56 | inactive: 0.336 | inactive: 1.03 |
| CN(c1ccc(N2C[C@@H](CN)OC2=O)cc1F)S(C)(=O)=O | inactive: -0.737 | inactive: -0.636 | inactive: -0.381 |
| O=C1NC(=O)C2=C(CCCC2)C1=Cc1ccccc1 | inactive: -2.01 | inactive: -1.32 | inactive: -0.364 |
| Cn1cc(-c2cnc3[nH]cc(Cc4cc(F)c(OCc5nc6ccccc6[nH]5)cc4Cl)c3c2)cn1 | inactive: -0.623 | inactive: -1.79 | inactive: -1.56 |
| CCCCCCN(C)CCCC(C#N)(c1cc(OC)c(OC)c(OC)c1)C(C)C (configuration not stated) | inactive: -1.09 | inactive: -2.05 | inactive: -0.284 |

As entered above.
TEAD-luciferase reporter activity (compound concentration: 10 uM), Cn1cc(-c2cnc3[nH]cc(Cc4cc(F)c(OCc5nc6ccccc6[nH]5)cc4Cl)c3c2)cn1 is entered as inactive: -1.56
TEAD-luciferase reporter activity (compound concentration: 2 uM), O=c1c2c(Cc3ccccc3)n[nH]c2c2cccnc2n1-c1ccccc1 is entered as inactive: 1.56

Following part.

| Structure (SMILES) | TEAD-luciferase reporter activity (compound concentration: 2 uM) | TEAD-luciferase reporter activity (compound concentration: 200 nM) | TEAD-luciferase reporter activity (compound concentration: 10 uM) |
| --- | --- | --- | --- |
| COc1ccc2c(=O)c(C)c(-c3ccccc3)oc2c1CN(C)C [Dimefline Hydrochloride] | inactive: -0.272 | inactive: -0.0969 | inactive: -0.815 |
| NC(=O)c1ncn([C@@H]2O[C@H](CO)[C@@H](O)[C@H]2O)n1 [Ribavirin] | inactive: -0.929 | inactive: -0.721 | inactive: 0.0448 |
| CCCNc1nc(NCCC)nc(N(C)OC)n1 | inactive: 0.815 | inactive: -0.3 | inactive: -0.329 |
| Cc1c(C)c2c(c(C)c1O)CCC(C)(COc1ccc(CC3SC(=O)NC3=O)cc1)O2 (configuration not stated) [Troglitazone] | – | inactive: 0.447 | inactive: -1.27 |
| Cc1c(C)c2c(c(C)c1O)CCC(C)(COc1ccc(CC3SC(=O)NC3=O)cc1)O2 (configuration not stated) [troglitazone] | inactive: -0.664 | – | – |
| CNc1cccc(CCOc2ccc3c(c2)CN(CC(F)(F)F)C(=O)[C@H](CC(=O)O)C3)n1 | inactive: -2.13 | inactive: 0.666 | inactive: -0.838 |
| CN(C)C1C(O)=C(C(N)=O)C(=O)C2(O)C(O)=C3C(=O)c4c(O)cccc4C(C)(O)C3CC12 (configuration not stated) [Tetracycline] | inactive: -2.05 | – | – |
| CN(C)C1C(O)=C(C(N)=O)C(=O)C2(O)C(O)=C3C(=O)c4c(O)cccc4C(C)(O)C3CC12 (configuration not stated) [Helicobacter pylori therapy, P] | – | inactive: -2.07 | inactive: -1.08 |
| COc1cc(NCc2ccc3nc(N)nc(N)c3c2C)cc(OC)c1OC [trimetrexate] | inactive: -0.923 | inactive: -0.663 | inactive: -0.5 |
| COc1cc(NCc2ccc3nc(N)nc(N)c3c2C)cc(OC)c1OC [trimetrexate glucuronate] | inactive: -0.835 | – | – |
| CC1(C)Cc2ccccc2C=[N+]1[O-] | inactive: -0.552 | inactive: -0.627 | inactive: -0.599 |
| COc1ccc(C(=O)NC2CCCN(Cc3ccc(-c4cc(C)cc(C)c4)cc3)C2)cc1 (configuration not stated) | – | inactive: 0.507 | inactive: 0.666 |
| CO/N=C(/C(=O)NC1C(=O)N2C(C(=O)O)=C(C[n+]3csc(CCO)c3C)CSC12)c1csc(N)n1 (configuration not stated) | inactive: -0.558 | inactive: 0.448 | inactive: -0.0461 |
| Cc1cccc(-c2[nH]c(C(C)(C)C)nc2-c2ccc3nccnc3c2)n1 | inactive: -1.14 | inactive: 0.0459 | inactive: -2.28 |
| COc1ccc2c(C3COC(CCCNC(C)=O)OC3)cccc2c1 (configuration not stated) | inactive: 0.62 | inactive: -0.84 | active: 5.56 |
| CC1=C(/C=C/C(C)=C/C=C/C(C)=C/C=C/C=C(C)/C=C/C=C(C)/C=C/C2=C(C)CCCC2(C)C)C(C)(C)CCC1 [Provitamin A] | inactive: -0.668 | – | – |
| CC1=C(/C=C/C(C)=C/C=C/C(C)=C/C=C/C=C(C)/C=C/C=C(C)/C=C/C2=C(C)CCCC2(C)C)C(C)(C)CCC1 [B-Carotene] | – | inactive: -1.58 | inactive: 0.165 |
| CCOC(=O)Cc1nc(-c2ccc(Cl)cc2)oc1OCC | inactive: -0.343 | inactive: -1.22 | inactive: -0.979 |
| CC(C)(C)NC(=O)c1ccc(Oc2cc(F)c(CC(=O)O)cc2Cl)c(NS(=O)(=O)c2c(Cl)cccc2Cl)c1 | inactive: -1.39 | inactive: 0.432 | inactive: -0.639 |

Single records (already shown). Values in the order: TEAD-luciferase reporter activity (compound concentration: 2 uM) | TEAD-luciferase reporter activity (compound concentration: 200 nM) | TEAD-luciferase reporter activity (compound concentration: 10 uM)
CC(C)(C)NC(=O)c1ccc(Oc2cc(F)c(CC(=O)O)cc2Cl)c(NS(=O)(=O)c2c(Cl)cccc2Cl)c1 is entered as inactive: -1.39 | inactive: 0.432 | inactive: -0.639
CCOC(=O)Cc1nc(-c2ccc(Cl)cc2)oc1OCC is entered as inactive: -0.343 | inactive: -1.22 | inactive: -0.979

Continued:

| Structure (SMILES) | TEAD-luciferase reporter activity (compound concentration: 2 uM) | TEAD-luciferase reporter activity (compound concentration: 200 nM) | TEAD-luciferase reporter activity (compound concentration: 10 uM) |
| --- | --- | --- | --- |
| NC(=O)C1(N2CCCCC2)CCN(CCCN2c3ccccc3CCc3ccc(Cl)cc32)CC1 | inactive: 1.26 | inactive: 1.09 | inactive: -0.193 |
| CCNC1CN(CCCOC)S(=O)(=O)c2sc(S(N)(=O)=O)cc21 (configuration not stated) [brinzolamide] | inactive: -1.36 | inactive: 2.56 | inactive: 2.42 |
| CC(=O)N1CCN([C@H]2CCN(C(=O)N(C)[C@H](C)c3cc(C(F)(F)F)cc(C(F)(F)F)c3)[C@@H](c3ccc(F)cc3C)C2)CC1 [Casopitant mesylate] | inactive: -1.39 | inactive: -0.718 | inactive: 1.14 |
| CC(C)CCN(C)C1CCc2ccccc21 (configuration not stated) | – | inactive: 0.576 | inactive: -1.54 |
| CCCC1([C@H](O)C/C=C/[C@H]2[C@H](O)CC(=O)[C@@H]2CCCCCCC(=O)OC)CCC1 [butaprost, BTG] | inactive: -0.138 | – | – |
| CCCC1([C@H](O)C/C=C/[C@H]2[C@H](O)CC(=O)[C@@H]2CCCCCCC(=O)OC)CCC1 | – | inactive: -1.69 | inactive: -1.78 |
| CC(C)NCC(O)COc1ccc(CC(N)=O)cc1 (configuration not stated) | – | inactive: 1.41 | inactive: 1.18 |
| CC(C)NCC(O)COc1ccc(CC(N)=O)cc1 [(S)-atenolol] | inactive: -0.538 | – | – |
| CC1=C(C#N)C(c2cccc3ncc(-c4ccccc4)cc23)C(C(=O)OC(C)C)=C(N)N1 (configuration not stated) | inactive: -0.289 | inactive: -2.17 | inactive: -1.79 |
| CCN(CC)CCNc1nccc(NCc2ccc(CNc3nc(Cl)ncc3F)cc2)n1 | inactive: 1.33 | inactive: 0.303 | inactive: 0.519 |
| O=S1(=O)N[C@H]2CCCN2c2ccccc21 | inactive: 1.47 | inactive: -0.954 | inactive: 1.45 |
| O=C1NCCNC1c1cccs1 (configuration not stated) | inactive: -1.44 | inactive: -0.0216 | inactive: 0.0315 |
| CCN(C/C=C/C#CC(C)(C)C)Cc1cccc(OCc2cc(-c3ccsc3)cs2)c1 | inactive: 1.19 | inactive: 0.813 | inactive: -0.433 |
| Cc1cccc(C2(CN)C3CC4CC(C3)CC2C4)c1 (configuration not stated) | inactive: 3.59 | inactive: -1.47 | inactive: 0.991 |
| CCCCCCCCCCCCCCCC(=O)Nc1ccn([C@@H]2O[C@H](CO)[C@@H](O)[C@@H]2C#N)c(=O)n1 [Sapacitabine] | inactive: -0.439 | inactive: 0.156 | inactive: 2.52 |
| CC[C@H](CN1CCCC1)C(=O)c1cc(-c2ccccc2)no1 | inactive: -0.496 | inactive: -0.169 | inactive: 2.61 |
| COc1ccc(OC2CN(Cc3ccc(F)cc3)C2)cc1 | – | inactive: 0.436 | inactive: -0.142 |
| CC(C)(C)C(=O)OCOC(=O)[C@@H]1N2C(=O)[C@@H](/N=C/N3CCCCCC3)[C@H]2SC1(C)C [Pivmecillinam hydrochloride] | inactive: 0.49 | inactive: 0.168 | inactive: 3.21 |
